PubChem BioAssay AID1259405 – NCATS – 2018
Here is one part, drawn at random, of about 50,000 reagents. Over the whole deposit, about 4,000 (8%) were called active. 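Mouse siRNA library applied to hamster cells; one well for each siRNA.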 Entries without a mark were called inactive. Reagents against one gene are numbered here.

Assay: 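Knock-downs that lift recombinant protein yield in hamster ovary cells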 (primary screen)
System: Chinese hamster CHO-K1 ovary cells with stable secreted eGFP expression
Reagent: single siRNA against mouse genes, 0.8 pmol siRNA per well (2 µl of 400 nM stock)
Timing: 3 days
Measurement: 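Per-well intracellular GFP measured by laser scanning cytometry, plus viability from ATP luminescence, each relative to plate median of non-targeting control wells, in %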
Scale: GFP, % of control: higher = more GFP per well, higher productivity; viability (ATP), % of control: higher = more viable cells (more ATP)
Hit rule: 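a knock-down is called active if GFP reaches 120% or more of non-targeting control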

no.	gene symbol	reagent	GFP, % of control	viability (ATP), % of control
1	Zup1	1	64	65.3
2	Zup1	2	41.5	73
3	Zup1	3	84.4	98.7
4	Spink1	1	125 (active)	99
5	Spink1	2	37.1	69.1
6	Spink1	3	105	59.2
7	Btnl10	1	77.1	70.5
8	Btnl10	2	75	108
9	Btnl10	3	94.3	96.8
10	Dnajc5	1	72.6	77.4
11	Dnajc5	2	74.5	63.8
12	Dnajc5	3	89.9	83.6
13	Or1j18	1	114	67.3
14	Or1j18	2	100	57.6
15	Or1j18	3	72.4	53.2
16	Or52e19b	1	28.5	42.1
17	Or52e19b	2	89.3	72.8
18	Or52e19b	3	49.4	76.6
19	Mybl2	1	68	61.1
20	Mybl2	2	48.6	47.3
21	Mybl2	3	80.4	89.8
22	Hlf	1	62.1	52.6
23	Hlf	2	51.8	98.3
24	Hlf	3	109	81.7
25	Ccny	1	37.4	49.9
26	Ccny	2	81.7	79
27	Ccny	3	93.5	122
28	Elf3	1	110	54.1
29	Elf3	2	108	103
30	Cwf19l2	1	67.8	94.2
31	Cwf19l2	2	73	63
32	Cwf19l2	3	100	110
33	Myog	1	88.4	86.5
34	Myog	2	94.1	60.2
35	Myog	3	75.4	126
36	Nop14	1	86.4	95.8
37	Nop14	2	56.9	39.5
38	Nop14	3	79.3	76.7
39	Ndufb3	1	42.6	55.3
40	Ndufb3	2	49.8	43.7
41	B230340J04Rik	1	91.4	60.4
42	B230340J04Rik	2	75	83.4
43	B230340J04Rik	3	86.8	85.7
44	Gfra3	1	79.9	100
45	Gfra3	2	37.8	70.9
46	Krt33a	1	66.2	83.6
47	Krt33a	2	81.6	67.9
48	Slc6a7	1	85.3	86.3
49	Slc6a7	2	78.3	66.1
50	Slc6a7	3	83.1	89.7
51	Or3a1b	1	91.9	64
52	Or3a1b	2	117	124
53	Or3a1b	3	63.7	60.5
54	Ranbp3	1	71.9	83.4
55	Ranbp3	2	101	76.2
56	Ranbp3	3	41.2	51
57	Chtop	1	73.3	76.3
58	Chtop	2	57.8	89.7
59	Chtop	3	85.6	44.2
60	Mllt6	1	48.1	40.6
61	Mllt6	2	92.5	71.5
62	Mllt6	3	118	115
63	Tex19.2	1	102	99.1
64	Tex19.2	2	109	79.9
65	Tex19.2	3	53.6	82.6
66	Smn1	1	85.7	105
67	Smn1	2	29.2	81.1
68	Pibf1	1	50.5	79.5
69	Pibf1	2	66.2	76.9
70	Pibf1	3	51.7	60.5
71	Ndufv3	1	56.1	61
72	Ndufv3	2	99.3	66.1
73	Ndufv3	3	93.2	59
74	Abcb10	1	134 (active)	120
75	Abcb10	2	24.8	51.9
76	Abcb10	3	127 (active)	72.2
77	Cyp4a10	1	95.9	96.9
78	Cyp4a10	2	56.2	79.3
79	Cyp4a10	3	72.8	73
80	Ran	1	59.8	44.2
81	Ran	2	85.5	96.7
82	Ran	3	147 (active)	52.2
83	Adgrv1	1	54.8	54.9
84	Adgrv1	2	93.1	83.7
85	Adgrv1	3	74	81.1

Part of the list above in another layout:
| gene symbol | reagent | GFP, % of control | viability (ATP), % of control |
| --- | --- | --- | --- |
| Krt33a | 2 | 81.6 | 67.9 |
| Slc6a7 | 1 | 85.3 | 86.3 |
| Slc6a7 | 2 | 78.3 | 66.1 |
| Slc6a7 | 3 | 83.1 | 89.7 |
| Or3a1b | 1 | 91.9 | 64 |
| Or3a1b | 2 | 117 | 124 |
| Or3a1b | 3 | 63.7 | 60.5 |
| Ranbp3 | 1 | 71.9 | 83.4 |
| Ranbp3 | 2 | 101 | 76.2 |
